Where “and” joins values, the source holds several entries; their conditions need not be identical. Identical values can stand only once. Hit rate of the full screen: of about 350,000 compounds, about 6,000 (1.7%) were called active. This list was built around the results that the source calls inconclusive (neither active nor inactive); the mix of calls is not that of the screen. No stated cut-off is given here; in the data, active means CPE inhibition above about 20% (passing the limit was not always enough); inconclusive means no clear call, values can overlap the other calls; tested in BHK-21 cells. Where a structure was tested more than once in an assay, its records may differ in their call.
Experiment: protection of cells from dengue 2 killing – plate reader, single concentration, primary screen (AID 651640);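 further: 0% = median of neutral control wells and 100% = median of positive control wells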
Conditions: DENV2-infected cells, cytopathic effect rescue, at 9.99 µM, stronger effect = higher value

Compound | CPE inhibition
O=C(C1CCOCC1)N1CC(=O)N2[C@@H](CO)[C@H](c3ccc(C#CC4CCCCC4)cc3)[C@@H]2C1 | inconclusive: 33.7%
CCC(=O)N1CCCCN2[C@@H](CO)[C@@H](c3ccc(C#Cc4ccccc4F)cc3)[C@@H]2C1 | inconclusive: 22.5%
C[C@@H]1CN([C@H](C)CO)C(=O)c2cc(Br)cnc2O[C@@H]1CN(C)C(=O)c1ccccc1 | inconclusive: 32.6% and active: 65.1%
CCCNC(=O)C[C@H]1CC[C@H]2[C@H](COc3ccc(NC(=O)c4ccc(Cl)cc4)cc3C(=O)N2C)O1 | inconclusive: 55.6%
CC(=O)N1CC[C@@H]2[C@H](CO)Nc3ccc(-c4ccc(F)cc4)cc3[C@@H]21 | inconclusive: 33.8%
C[C@@H]1CN([C@H](C)CO)C(=O)Cc2cc(NS(=O)(=O)c3ccc(F)cc3)ccc2O[C@H]1CN(C)Cc1ccc(C(=O)O)cc1 | inconclusive: 44.2%
C[C@@H]1CCCCO[C@H](CN(C)C(=O)NC2CCCCC2)[C@@H](C)CN([C@H](C)CO)C(=O)c2cc(NC(=O)C3CCCCC3)ccc2O1 | inactive: 8.5%
O=C1CC(=O)Nc2cc(S(=O)(=O)NCc3cccs3)ccc2N1 | inactive: 0.341%
COc1ccccc1NC(=O)c1c(N=Cc2c(O)ccc3ccccc23)cnn1C | inconclusive: 24%
O=C(NCc1ccccc1)c1ccc(NC(=O)C2CCC2)cc1 | inconclusive: 43.2%
Cc1ccccc1S(=O)(=O)NCC[C@@H]1CC[C@@H](NC(=O)C2CCCCC2)[C@@H](CO)O1 | active: 27.3%
C[C@@H]1CCCCO[C@H](CN(C)Cc2ccc(Cl)c(Cl)c2)[C@H](C)CN([C@@H](C)CO)C(=O)c2cc(NS(=O)(=O)c3ccccc3)ccc2O1 | active: 32.4%
Cc1ccc(CNC(=O)CC(C)S(=O)(=O)c2cc3c(cc2C)NC(=O)CO3)cc1 (stereo unspecified) | inconclusive: 24.2%
CC(C)CC(N)c1csc(Nc2ccc(C(F)(F)F)cn2)n1 (stereo unspecified) | inconclusive: 53%
O=C(COc1ccc(Cl)cc1)Nc1ccccc1Cl | inconclusive: 23.9%
Cc1cccc(N2CCN(C(=O)c3c(-c4ccccc4Cl)noc3C)CC2)c1C | inconclusive: 41.4%
CO[C@H]1CN(C)C(=O)c2cc(NC(=O)Nc3ccc(Cl)cc3)ccc2OC[C@@H](C)NC[C@@H]1C | inconclusive: 33.2%
CCC(=O)N(C)C[C@@H]1Oc2ncc(-c3ccc(C#N)cc3)cc2C(=O)N([C@H](C)CO)C[C@@H]1C | active: 70.4%
Cc1oc2c(C)c3oc(=O)c(CCC(=O)NCCCN4CCOCC4)c(C)c3cc2c1C | inconclusive: 78.1%
CC(=O)N(c1ccccc1)c1ccccc1[N+](=O)[O-] | inconclusive: 37.6%
CC(C)(C)c1cc(CCC(=O)NCc2cccnc2)cc(C(C)(C)C)c1O | inactive: 2.07%
O=C(C[C@H]1C[C@H]2c3cc(NC(=O)C4CCC4)ccc3O[C@H]2[C@H](CO)O1)NCc1cccc(F)c1 | inconclusive: 24.7%
COc1ccc(CNc2nc3ccccc3n2C(C)C)c(O)c1 | inconclusive: 45.1%
O=C(C[C@@H]1CC[C@@H](NC(=O)Nc2ccccc2F)[C@@H](CO)O1)NCc1ccc(F)cc1 | inactive: 8.36%

Compound | CPE inhibition
Cc1ccccc1-c1ccc([C@@H]2[C@H](CO)N3CCCCN(C(=O)CN4CCOCC4)C[C@@H]23)cc1 | inactive: -8.72%
COc1ccccc1CNC(=O)c1cc(S(=O)(=O)N2CCN(c3ccccc3)CC2)ccc1Cl | inconclusive: 62.3%
Cc1noc(C)c1NC(=O)N(C)C[C@@H]1OCCCC[C@H](C)Oc2ccc(NS(=O)(=O)c3ccccc3)cc2C(=O)N([C@@H](C)CO)C[C@H]1C | inconclusive: 32.5%
COc1ccc(CNC(=O)CCC(=O)N2CCN(S(=O)(=O)c3cc([N+](=O)[O-])ccc3C)CC2)cc1 | inconclusive: 21.3%
CCCc1nc2ccccc2c(=O)n1CC(=O)c1ccc(F)cc1 | inconclusive: 44.7%
COc1ccc(S(=O)(=O)N2CCN(C(=O)c3ccc(NC(C)=O)cc3)CC2)cc1 | inconclusive: 22.5%
C[C@H](CO)N1C[C@H](C)[C@@H](CN(C)C(=O)C2CCCCC2)Oc2ncc(-c3cccc(C#N)c3)cc2C1=O | inconclusive: 36.5%
COc1ccc(NC(=O)N(C)C[C@H]2OCCCC[C@H](C)Oc3ccc(NS(=O)(=O)c4cn(C)cn4)cc3C(=O)N([C@@H](C)CO)C[C@H]2C)cc1 | inconclusive: 57.8%
COc1cc(OC)cc(-c2c(Sc3ccccc3)c3cc(-c4cnc(N5CCOCC5)nc4)ccc3n2C)c1 | inconclusive: 28.5%
Cc1cc(C)n(CCc2nc(-c3ccc(-c4ccccc4)cc3)cs2)n1 | inactive: 5.96%
O=C(NCC[C@@H]1CC[C@@H](NS(=O)(=O)c2cccc(F)c2)[C@H](CO)O1)C1CC1 | inconclusive: 22.9%
COc1ccc2c3c(n(C)c2c1)[C@@H](CO)N(C(=O)CN1CCOCC1)CC31CCN(C(=O)CC2CC2)CC1 | inconclusive: 68.1%
O=C(c1ccc(N2CCN(C(=O)c3ccc(F)c(F)c3)CC2)cc1)c1cccc(F)c1 | inconclusive: 26.7%
CC(C)NC(=O)N1[C@H](CO)[C@H](c2ccccc2)[C@@H]1CNC(=O)CN(C)C | inconclusive: 16.7%
O=C(COc1ccccc1)Nc1ccc(N2CCN(C(=O)c3cccs3)CC2)cc1 | active: 21.9%
COc1cccc(-c2cccc(-c3nc(C(=O)NCCCN4CCOCC4)cc4c3[C@H](CCO)N(S(=O)C(C)(C)C)C4)c2)c1 (stereo partly specified) | inconclusive: 37.7%
O=C1CC2CC1C(C(=O)O)C2C(=O)O (stereo unspecified) | inconclusive: 34.5%
COc1cccc(-c2cc3nc(NCc4cccnc4)n(C)c(=O)c3s2)c1 | inconclusive: 30.1%
O=C1c2ccccc2S(=O)(=O)c2cc(C(=O)N3CCN(c4ccccc4)CC3)ccc21 | inconclusive: 24.8%
CCc1nc2ccc(C(=O)Nc3ccc(OC)c(OC)c3)cn2c1N(C)C(=O)Cc1ccccc1 | inconclusive: 43.5%
C[C@H](CO)N1C[C@H](C)[C@H](CN(C)Cc2ccncc2)Oc2ccc(N(C)C)cc2C1=O | active: 24.8%
CCCc1cc(=O)[nH]c(Nc2ccc3c(c2)OCCO3)n1 | inactive: 0.841%
C=CCN1CCN(C(c2ccccc2OC)c2nnnn2C(C)(C)C)CC1 (stereo unspecified) | inconclusive: 43.5%
Cc1cccc(OCCn2ccnc2)c1C | inconclusive: 40.6%

Compound | CPE inhibition
COc1ccc2c3c([nH]c2c1)[C@H](CO)N(S(=O)(=O)c1ccc(C)cc1)CC31CN(C(=O)Cc2cccnc2)C1 | active: 27.5%
O=C(CSC1=NCCS1)NC(c1ccccc1)c1ccccc1 | inconclusive: 26.6%
C[C@H](CO)N1C[C@H](C)[C@H](CN(C)Cc2ccc(C(=O)O)cc2)Oc2c(NC(=O)C3CCCCC3)cccc2C1=O | inactive: -8.41%
C[C@H](CO)N1C[C@H](C)[C@@H](CN(C)S(=O)(=O)c2cn(C)cn2)Oc2c(NS(C)(=O)=O)cccc2C1=O | inactive: 1.2%
O=C(O)c1ccc(S(=O)(=O)c2ccccc2C(=O)O)c([N+](=O)[O-])c1 | inconclusive: 34%
COc1ccc(OC(=O)N(C)C[C@@H]2OCc3ccccc3-c3ccccc3C(=O)N([C@@H](C)CO)C[C@H]2C)cc1 | inconclusive: 39.7%
CC(C)[C@H](NC(=O)c1ccc(Cl)c(Cl)c1)C(=O)N1CCC[C@H]1C(=O)NCCc1ccccc1Cl | active: 23.3%
CC(=O)Nc1nc(C)c(Oc2cccc(C(F)(F)F)c2)c(=O)[nH]1 | inconclusive: 27.2%
O=C(Cn1nnc(N2CCCCC2)n1)NN=Cc1ccccc1O | inconclusive: 23.2%
C[C@H](CO)N1C[C@H](C)[C@H](CN(C)C(=O)NC2CCCCC2)OCCCC[C@H](C)Oc2ccc(NC(=O)Nc3ccc4c(c3)OCO4)cc2C1=O | inconclusive: 20.2%
CN(CC(=O)Nc1cccc(F)c1)C(=O)Cn1c(=O)oc2ccccc21 | inactive: 0.134%
COc1cc(NC(=O)CSCC(=O)N(C)C2CCCCC2)cc(OC)c1 | inconclusive: 35.9%
CCC(=O)Nc1ccc2c(c1)OC[C@@H](C)N(C(=O)c1ccccn1)C[C@@H](C)[C@H](OC)CN(C)C2=O | active: 25.8%
COc1cccc(C(=O)N2C[C@H]3[C@@H](c4ccccc42)[C@H](CO)N3Cc2ccccc2F)c1 | inactive: -17.1%
COc1ccc(-c2nc(CS(=O)CC(=O)NC3CCCC(C)C3C)c(C)o2)cc1OC (stereo unspecified) | inactive: -0.235%
Cc1ccc(CNc2nc(N)c([N+](=O)[O-])c(NCCO)n2)cc1 | inactive: -0.845%
O=c1sc2ccccc2c(=O)n1Cc1ccccc1F | inactive: -0.501%
COc1ccc(Cl)cc1NC(=O)Cn1c(NCCO)nc2ccccc21 | inconclusive: 23.1%
Cc1ccc(S(=O)(=O)N(C)C[C@@H]2OCCCC[C@H](C)Oc3ccc(NC(=O)c4ccncc4)cc3C(=O)N([C@@H](C)CO)C[C@H]2C)cc1 | inactive: 0.843%
C=C(C)C(=O)N1CC2(CC(c3cccc(NC(=O)/C=C\C)c3)=NO2)C[C@H]1C(N)=O (stereo partly specified) | active: 128%
Cc1ccc(CCN2CC(C(=O)NC(C)C)CC2=O)cc1 (stereo unspecified) | inconclusive: 23.3%
CO[C@@H]1CN(C)C(=O)c2ccc(NS(=O)(=O)c3cn(C)cn3)cc2OC[C@@H](C)N(CC2CC2)C[C@H]1C | active: 21.4%
C[C@H](CO)N1C[C@H](C)[C@H](CN(C)CC2CCCCC2)OCCCC[C@H](C)Oc2ccc(NC(=O)C3CCCCC3)cc2C1=O | active: 23.4%

Source: PubChem BioAssay AID651640 (Broad Institute, 2012)
